{"sequences": {"note": "Amino acid sequences for entries named in this document (tags omitted). A change or cut given only in a name is not applied to a line headed by its entry.", "UniProt P18054": "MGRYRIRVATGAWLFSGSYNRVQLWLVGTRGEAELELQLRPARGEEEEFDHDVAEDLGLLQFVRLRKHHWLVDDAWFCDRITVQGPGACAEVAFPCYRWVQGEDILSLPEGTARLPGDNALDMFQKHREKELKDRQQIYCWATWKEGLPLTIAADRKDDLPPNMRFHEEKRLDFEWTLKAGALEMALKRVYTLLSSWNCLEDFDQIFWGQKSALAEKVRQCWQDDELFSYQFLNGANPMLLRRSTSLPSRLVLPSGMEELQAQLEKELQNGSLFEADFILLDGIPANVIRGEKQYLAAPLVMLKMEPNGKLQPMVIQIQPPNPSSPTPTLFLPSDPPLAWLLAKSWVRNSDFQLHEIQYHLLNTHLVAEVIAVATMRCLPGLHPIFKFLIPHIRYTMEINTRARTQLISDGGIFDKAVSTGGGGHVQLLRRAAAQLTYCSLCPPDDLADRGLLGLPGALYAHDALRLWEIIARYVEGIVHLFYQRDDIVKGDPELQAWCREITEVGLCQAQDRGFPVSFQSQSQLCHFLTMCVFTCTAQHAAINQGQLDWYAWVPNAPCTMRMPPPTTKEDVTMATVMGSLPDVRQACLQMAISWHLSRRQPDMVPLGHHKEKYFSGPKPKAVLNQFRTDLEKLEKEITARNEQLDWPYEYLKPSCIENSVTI"}, "source": "PubChem BioAssay AID1671190", "about": "(National Center for Advancing Translational Sciences (NCATS), 2021)", "note": "Several values for one entry are separate records, joined by “and”; a condition that tells them apart may be missing. Equal entries are not always repeated. The whole screen tested about 580,000 compounds, of which about 6,100 (1.1%) were called active. This list was built around the results that the source calls inconclusive (neither active nor inactive); the mix of calls is not that of the screen. The call rests on the fitted dose curve; in most records, active means well fitted inhibition curve with a large enough effect; inconclusive means small, poorly fitted or top-dose-only effect, or another doubt; inactive means no such curve, though single readings can be large or run the other way. A potency beside an inconclusive call is a rough fit, not a confirmed value. On the % scale 0 is the no-effect control and ±100 the full control effect; potency means the concentration at half of the fitted maximal effect."}
{"molecular_target": "Polyunsaturated fatty acid lipoxygenase ALOX12 (Homo sapiens) (UniProt P18054)", "experiment": "Primary qHTS assay for inhibitors of human arachidonate 12S-lipoxygenase (ALOX12): Round 2", "settings": "purified 12hLO, xylenol orange hydroperoxide absorbance; activity change, negative = inhibition: at 108 µM (top of the series) unless noted", "summary_of_the_method": "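Purified human 12hLO (150 nM final) in 25 mM Hepes, 0.01% Triton X-100, pH 7.0 was preincubated 15 min at room temperature with compound. Then 40 uM arachidonic acid was added, 30 min. Hydroperoxide was read by Fe-XO absorbance ratio 573/405 nm.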"}
{"smiles": "Cc1ccc(NC(=O)CN2N=C(c3ccccc3F)c3cc(Cl)ccc3S2(=O)=O)c(C)c1", "Potency": "inconclusive: 7.08 µM [inhibitor, full curve, poor fit]"}
{"smiles": "Cc1cc(Cl)c(CO)c(Cl)n1", "Potency": "inconclusive: 141 µM [inhibitor, single point]"}
{"smiles": "O=C(O)c1ccc(S(=O)(=O)N2CCC(n3nnc4cc(C(F)(F)F)ccc43)CC2)cc1", "activity change, negative = inhibition": "inactive: -20.7%"}
{"smiles": "COc1ccc(/C=C/C(=O)Nc2ccc3nc(N4CCC(C)CC4)cc(C)c3c2)cc1", "Potency": "inconclusive: 158 µM [inhibitor, single point]"}
{"smiles": "CCC(=O)N1CCC(Oc2ccc(C(N)=O)cn2)C1", "note": "(centres undefined)", "activity change, negative = inhibition": "inactive: 9.42%"}
{"smiles": "O=C(CN1CCN(S(=O)(=O)c2ccccc2F)CC1)NC1CCCC1", "Potency": "inconclusive: 1.26 µM [inhibitor, full curve, poor fit]"}
{"smiles": "[O-][n+]1cn(Cc2ccccc2)c2ccccc21", "Potency": "inconclusive: 89.1 µM [inhibitor, partial curve, poor fit]"}
{"smiles": "O=c1cc(Cc2nnc(SCc3ccccc3)n2-c2ccc(Cl)cc2)[nH]c(=O)[nH]1", "Potency": "inconclusive: 50.1 µM [inhibitor, partial curve, poor fit]"}
{"smiles": "CN(C)c1ccc(C(=O)N[C@H]2CO[C@H]3[C@@H]2OC[C@@H]3n2cc(COc3ccccc3)nn2)cc1", "activity change, negative = inhibition": "inactive: -4.52%"}
{"smiles": "COCCNc1nc(NCc2cccc(Cl)c2)c2cnn(C)c2n1", "Potency": "inconclusive: 50.1 µM [inhibitor, partial curve, poor fit]"}
{"smiles": "CCCCCCCCCCCCCCCC[n+]1ccccc1", "Potency": "inconclusive: 89.1 µM [inhibitor, partial curve, poor fit] [middle of 4 runs]"}
{"smiles": "O=S1(=O)CC(N2CCC(c3ccccc3)CC2)CN1Cc1ccc(F)cc1", "note": "(centres undefined)", "Potency": "inconclusive: 100 µM [inhibitor, partial curve, poor fit]"}
{"smiles": "Cc1ccc(-c2csc(/C(C#N)=C/c3cccnc3)n2)cc1", "Potency": "inconclusive: 44.7 µM [inhibitor, partial curve, poor fit]"}
{"smiles": "Cn1c(CSCc2ccc(F)cc2)n[nH]c1=S", "Potency": "inconclusive: 44.7 µM [inhibitor, partial curve, poor fit]"}
{"smiles": "CC1(Cc2ccccc2Cl)C(=O)Nc2c(Cl)ccc(Cl)c21", "note": "(centres undefined)", "Potency": "inconclusive: 56.2 µM [inhibitor, partial curve, poor fit]"}
{"smiles": "NCCOc1ccc(OCCN)cc1", "Potency": "inconclusive: 7.08 µM [inhibitor, full curve]"}
{"smiles": "CCn1nc(NC(=O)C(C)(C)C)c2cc3cccc(C)c3nc21", "activity change, negative = inhibition": "inactive: -12.5%"}
{"smiles": "COCCN1CCCCCC(O)c2cc(C(=O)N3CCN(c4ccc(OC)cc4)CC3)ccc21", "note": "(centres undefined)", "Potency": "inconclusive: 28.2 µM [inhibitor, full curve]"}
{"smiles": "O=c1nc2c(O)cccn2c2c1c(=O)[nH]c1ccccc12", "Potency": "inconclusive: 14.1 µM [inhibitor, partial curve, poor fit]"}
{"smiles": "C=CCc1ccccc1OCC(O)CN1CCN(c2ccccc2OC)CC1", "note": "(centres undefined)", "Potency": "inconclusive: 25.1 µM [inhibitor, partial curve] and inconclusive: 14.1 µM [inhibitor, full curve]"}
{"smiles": "CCCN(C)C[C@@H]1OCCCC[C@@H](C)Oc2ccc(NS(=O)(=O)c3ccc(OC)cc3)cc2C(=O)N([C@H](C)CO)C[C@@H]1C", "Potency": "inconclusive: 44.7 µM [inhibitor, partial curve, poor fit]"}
{"smiles": "Cc1cc(F)ccc1S(=O)(=O)N(Cc1nccn1C)C1CC1", "activity change, negative = inhibition": "inconclusive: -33.9% [inhibitor]"}
{"smiles": "CN(C)S(=O)(=O)c1cccc(NC(=O)c2ccccc2Oc2ccccc2)c1", "Potency": "inconclusive: 112 µM [inhibitor, single point]"}
{"smiles": "O=C1C(=O)N(Cc2ccccc2)C(c2cccc(O)c2)/C1=C(\\O)c1ccc2c(c1)OCCO2", "note": "(centres undefined)", "Potency": "inconclusive: 50.1 µM [inhibitor, partial curve, poor fit]"}
{"smiles": "O=C(N/N=C/c1cccc(Oc2ccccc2)c1)c1ccncc1", "activity change, negative = inhibition": "inactive: 0.271%"}
{"smiles": "CC1(C)CCc2cc(-c3ccn(S(=O)(=O)c4ccccc4Cl)n3)ccc2O1", "Potency": "inconclusive: 112 µM [inhibitor, single point]"}
{"smiles": "COCCNCCOc1ccc(C)cc1[N+](=O)[O-]", "Potency": "inconclusive: 3.55 µM [inhibitor, full curve, poor fit]"}
{"smiles": "Cc1ccc(S(=O)(=O)N(CC(=O)NCc2cccs2)c2ccccc2)cc1", "Potency": "inconclusive: 56.2 µM [inhibitor, partial curve, poor fit]"}
{"smiles": "C=Cc1ccc(Cn2c(C)c(CNCc3ccccc3C)c(C(=O)O)c2C)cc1", "Potency": "inconclusive: 56.2 µM [inhibitor, partial curve, poor fit]"}
{"smiles": "CCOC(=O)C(=Cc1ccc(-c2ccsc2C(=O)OC)o1)C(=O)OCC", "activity change, negative = inhibition": "inactive: -12.6%"}
{"smiles": "CCCS(=O)(=O)NC(=O)C1(C)CCCN(C(=O)c2ccc(OC)cc2OC)C1", "note": "(centres undefined)", "Potency": "inconclusive: 100 µM [inhibitor, single point]"}
{"smiles": "CCCCC(=O)OCc1c(-c2ccccc2)ncc2ccccc12", "Potency": "inconclusive: 35.5 µM [inhibitor, partial curve, poor fit]"}
{"smiles": "COc1ccc(Br)cc1-c1nc(CCl)cs1", "Potency": "inconclusive: 35.5 µM [inhibitor, partial curve, poor fit]"}
{"smiles": "COc1cccc(Cn2c(=O)c(-c3ccccc3)nc3cnc(N4CCN(C)CC4)nc32)c1", "Potency": "inconclusive: 35.5 µM [inhibitor, partial curve, poor fit]"}
{"smiles": "Cn1c(=O)c2cc(NC(=S)NC3CC3)ccc2n1Cc1ccc(F)cc1", "Potency": "inconclusive: 28.2 µM [inhibitor, partial curve, poor fit]"}
{"smiles": "COc1ccccc1-c1[nH]c2ccccc2c1C(C)=O", "activity change, negative = inhibition": "inactive: -0.142%"}
{"smiles": "O=C(NCc1cc2n(n1)CCNC2)c1ccc2c(c1)ncn2CCO", "Potency": "inconclusive: 15.8 µM [inhibitor, full curve, poor fit]"}
{"smiles": "C=CCNCCOCCOc1ccc(Cl)cc1C(C)(C)C", "Potency": "inconclusive: 1 µM [inhibitor, full curve]"}
{"smiles": "COc1ccc(/C=N/N(C(C)=O)c2nc(-c3ccc(C)cc3)cs2)cc1", "activity change, negative = inhibition": "inactive: 6.03%"}
{"smiles": "COc1cccc(CNC(=O)CCCCCn2c(=S)[nH]c3ccc(N4CCOCC4)cc3c2=O)c1", "activity change, negative = inhibition": "inactive: -10%"}
{"smiles": "CCOc1ccc(N2CC(O)=C(c3nc4ccccc4c(=O)[nH]3)C2=N)cc1", "Potency": "inconclusive: 5.01 µM [inhibitor, full curve, poor fit]"}
{"smiles": "Cc1cc(C(=O)O)cs1", "Potency": "inconclusive: 126 µM [inhibitor, single point]"}
{"smiles": "C[C@@H](CO)NC(=O)c1nc[nH]c1C(=O)N[C@H](C)c1ccccc1", "Potency": "inconclusive: 25.1 µM [inhibitor, partial curve, poor fit]"}
{"smiles": "COc1ccc2cc(/C=N/NC(=O)c3ccc(CN(c4cccc(Cl)c4Cl)S(C)(=O)=O)cc3)c(Cl)nc2c1", "activity change, negative = inhibition": "inactive: 19.4%"}
{"smiles": "Cn1nc(C2CCNC2)c2c(C(=O)NC3CC3)cc(C3CC3)nc21", "note": "(centres undefined)", "Potency": "inconclusive: 28.2 µM [inhibitor, full curve, poor fit]"}
{"smiles": "NC(=O)c1cccc(N=Cc2cc(Cl)cc(Cl)c2O)c1", "Potency": "inconclusive: 79.4 µM [inhibitor, partial curve, poor fit]"}
{"smiles": "COc1cc(C2CC(=O)Nc3c2cnn3-c2nc3ccccc3s2)cc(OC)c1O", "note": "(centres undefined)", "activity change, negative = inhibition": "inactive: -12.8%"}
{"smiles": "CC[C@]12c3[nH]c4ccccc4c3CCN1C(=O)C(CC(=O)NCCCn1ccnc1)C[C@@H]2C(=O)N1CCN(C(=O)C2CC2)CC1", "note": "(some centres undefined)", "activity change, negative = inhibition": "inactive: -19.3%"}
{"smiles": "Cc1ccc(NC(NC(=O)C(C)(C)C)C(Cl)(Cl)Cl)cc1", "note": "(centres undefined)", "activity change, negative = inhibition": "inactive: 24.4%"}
{"smiles": "COc1ccccc1NC(=O)COc1ccccc1", "activity change, negative = inhibition": "inactive: -7.31%"}
{"smiles": "Cc1cc(SCC(=O)N/N=C/c2ccc(O)c(O)c2)c(C)cc1Br", "Potency": "active: 6.31 µM"}
{"smiles": "CCc1ccccc1N1CSC2=C(C#N)C(c3cc(OC)c(OC)cc3OC)CC(=O)N2C1", "note": "(centres undefined)", "Potency": "inconclusive: 1 µM [inhibitor, full curve, poor fit]"}
{"smiles": "CCOC(=O)c1c(C)[nH]c(C)c1S(=O)(=O)N1CCC(C(=O)NCc2ccccc2Cl)CC1", "Potency": "inconclusive: 126 µM [inhibitor, single point]"}
{"smiles": "COc1ccc(C)cc1N(C)C(=O)CCc1nc(-c2ccccc2F)no1", "Potency": "inconclusive: 100 µM [inhibitor, single point]"}
{"smiles": "CCN1CCN(CC(=O)N/N=C/c2ccc(F)cc2F)CC1", "Potency": "inconclusive: 1.26 µM [inhibitor, full curve, poor fit]"}
{"smiles": "Cc1cn(CC(=O)NCc2nc3ccccc3[nH]2)c(=O)[nH]c1=O", "Potency": "inconclusive: 100 µM [inhibitor, single point]"}
{"smiles": "Nc1sc2c(c1C(=O)NC1CC1)CCCC2", "Potency": "inconclusive: 35.5 µM [inhibitor, partial curve, poor fit]"}
{"smiles": "O=C(/C=C/c1ccc(Cl)cc1Cl)c1cccnc1", "Potency": "inconclusive: 15.8 µM [inhibitor, partial curve, poor fit]"}
{"smiles": "COc1ccccc1NCCC(=O)O", "Potency": "inconclusive: 112 µM [inhibitor, single point]"}
{"smiles": "COc1ccc(S(=O)(=O)Cc2nnnn2-c2ccc(F)cc2)cc1", "activity change, negative = inhibition": "inactive: -9.26%"}
{"smiles": "CC(C)(C)NNC(=S)Nc1cccc(F)c1", "Potency": "inconclusive: 28.2 µM [inhibitor, partial curve, poor fit]"}
{"smiles": "Cc1ccc2c(CC(=O)NC3CCCCCC3)coc2c1", "Potency": "inconclusive: 44.7 µM [inhibitor, partial curve, poor fit]"}
{"smiles": "Cc1ccc(-n2c(-c3ccc(Cl)cc3Cl)n[nH]c2=S)cc1", "Potency": "inconclusive: 44.7 µM [inhibitor, partial curve, poor fit]"}
{"smiles": "NS(=O)(=O)c1ccc(-c2ccc(/C=N/Nc3ccc(S(=O)(=O)Nc4ccccc4)cc3[N+](=O)[O-])o2)cc1", "activity change, negative = inhibition": "inactive: -24.8%"}
